The other results are listed elsewhere or left out.
B1: il10ra_site1_sap_25_mot_HHH_b1_03900_000000129_0001_1_16_H_._HHH_b1_05904_0001_0000500045_0000002_0_0001_af2pred_0001 (protein)
chain: SSSSAERAAEIAVRAAEWAIEAGDPEIAEQALRALKFLAEELNDPELRELVEELEQLLRELSSSS
B2: il10ra_site1_normal_mot_HHH_b1_06914_000000280_0001_1_18_H_._HHH_b1_06660_0001_0000200027_0000001_0 (protein)
chain: SSSSTHEVYELSRRAAELIANGNLEEAEEVLREAEELARQNNNEVLLFNIRLLLRQIEQLLSSSS
B3: il10ra_site1_sap_21_mot_HHH_b1_01592_af2_000000239_0001_40_54_H_._HHH_b2_03255_af2_0001_0001100028_0000001_0_0001 (protein)
chain: SSSSDEQEAIRLLHELMEAYKKGDEELIEELVEELEELARKLNSASARLLVRFAKELLEELSSSS
B4: il10ra_site1_sap_16_mot_HHH_b1_08411_af2_000000053_0001_1_20_H_._HHH_b2_04044_0001_0000200014_0000001_1_0001 (protein)
chain: SSSSDEEELEKLQEEIERLIEEGDPERAAKLLQELLRIAFQLSDEEIMRLIMELAELIRNASSSS
B5: il10ra_site1_sap_23_mot_2c1a291787c6f40772924d4e9068d803_0001_af2_000000187_0001_34_48_H_._HHH_b2_07452_0001_0000300038_0000001_0_0001_af2pred_0001 (protein)
chain: SSSSDDKELAELALRMVKWLEKAGDEEALKRLLEAAAQIAELANDEEILKELQEILEELESSSSS
B6: il10ra_site1_sap_23_mot_HHH_b2_07144_000000289_0001_1_18_H_._HHH_b1_01684_0001_0000400046_0000001_0_0001_af2pred_0001 (protein)
chain: SSSSDAEEFVRLTLRFVKFLLEQGDKEAAKRFLEAAKRLVKLEGNEELEEKLEELEEEVNSSSSS
B7: il10ra_site1_sap_27_mot_HHH_b1_04327_000000247_0001_1_20_H_._HHH_b1_04639_af2_0001_0000300033_0000001_0_0001 (protein)
chain: SSSSSDEEEREEIKELLEEAEQIEDPRRLSKLLQEATRIAIQLQDKELLREIWEVVKKLSSSSSS
B8: il10ra_site1_sap_9_mot_47763b419dcba15278d0659274068abf_0001_af2_000000068_0001_35_48_H_._a3670c5829215c526ff869221da29923_0001_0001_0000200005_0000002_0_0001 (protein)
chain: SSSSSEREEVYELIREALELRANGDPEEAEEVLERALKLAEELGSFVFRFAARLALEDIKSSSSS
B9: il10ra_site1_normal_mot_HHH_b2_00943_af2_000000149_0001_1_17_H_._HHH_b2_02724_af2_0001_0000500018_0000002_0 (protein)
chain: SSSSSEEFEELVEEAQRLAKELGDENVLFLIRQVEKAYRRAGDEWAKEALESLLKELEELGSSSS
B10: il10ra_site1_sap_17_mot_ems_3hC_416_0001_000000048_0001_1_19_H_._HHH_b2_07787_af2_0001_0000100005_0000001_1_0001 (protein)
chain: DEELLEEILKKLKQVPNPRVRELAEEAEELLERGDPYKAAQVLLRAIAWAGDPELLQLLWEAVKR
B11: il10ra_site1_normal_mot_HHH_b1_03900_000000129_0001_1_16_H_._HHH_b1_06727_af2_0001_0000800013_0000002_0 (protein)
chain: SSSSSEEEEREAYELIKRVARLLIRGDPERAEELFKELEKLLEELGDPALERALEILERALSSSS
B12: il10ra_site1_sap_22_mot_HHH_b2_00475_000000002_0001_44_57_H_._HHH_b2_03280_0001_0000100002_0000002_1_0001 (protein)
chain: SSSSDRQEIAKLLMEALQLLFNGNPEEAEEVIREARELAEELGDEALEEMLEFIREVIERASSSS
B13: il10ra_site1_sap_15_mot_HHH_b2_03220_af2_000000223_0001_23_40_H_._7f2fc9564206058543fe500fefea0e08_0001_0001_0000600015_0000001_0_0001 (protein)
chain: SSSSDEERARELVEAALRLARQAPDEETLRFMLMAAEMLAKETNDPELEELAKEIEELRESSSSS
B14: il10ra_site1_sap_24_mot_HHH_b1_03763_000000209_0001_22_38_H_._HHH_b2_08112_0001_0000100003_0000001_0_0001 (protein)
chain: SSSSSDELFRLVEEAIERASELRRNGNPEEAERLLEEILELAEELGNRIVIFAIRHLLEAISSSS
B15: il10ra_site1_sap_19_mot_HHH_b1_05704_af2_000000048_0001_1_18_H_._HHH_b2_06557_0001_0000100008_0000001_0_0001_af2pred_0001 (protein)
chain: SSSSDEEREELQELLERIHELLKEGNKEEAEKLIEEAREIAEELNNELARVLIEFLLELLNSSSS
B16: il10ra_site1_normal_mot_8756ee2cf497b5429c717dfc0c0bcfd6_0001_000000186_0001_1_13_H_._HHH_b2_03261_0001_0000300012_0000001_0_af2pred_0001 (protein)
chain: SSSSSSSELAEEVLRLIRRLAEVDEEEREELLERAEKIAEEINNLVLEVQLEFAKKAFSSSSSSS
B17: il10ra_site1_sap_20_mot_39a7b8d0c4c3fc04bafbda6ce6101d3a_0001_1_af2_000000014_0001_34_48_H_._HHH_b2_04505_0001_0000500012_0000002_0_0001_af2pred_0001 (protein)
chain: SSSSSSSDEERVRELLEEAEKIDDEEEFVYVLIRAWAIANQSNNEELRREVEEVAQKLLSSSSSS
B18: il10ra_site1_sap_15_mot_HHH_b1_06804_000000054_0001_40_54_H_._HHH_b2_05376_0001_0000100004_0000001_0_0001 (protein)
chain: SSSSDVEQRVSELLFEAIRLAANGNPEEAEKLVEEAERLAEENNDPELERYVEIAKRFIKNSSSS
B19: il10ra_site1_sap_15_mot_HHH_b1_02080_af2_000000254_0001_23_39_H_._HHH_b1_07440_0001_0000200016_0000001_1_0001_af2pred_0001 (protein)
chain: SSSSSQDELEIRALMRLARAALEQGNPKAAEILLRWALKLAEEINNEELRKEIEELLREVGSSSS
B20: il10ra_site1_normal_mot_HHH_b1_08411_af2_000000053_0001_1_20_H_._HHH_b2_02982_0001_0000200029_0000002_0 (protein)
chain: SSSSQELFELTREAIKQAIELFREGNREEAEELLEEVLKEVREAGNVALEFSLEHLLRALSSSSS
B21: il10ra_site1_sap_18_mot_HHH_b1_06789_af2_000000041_0001_1_20_H_._HHH_b1_02475_0001_0000600043_0000001_0_0001_af2pred_0001 (protein)
chain: SSSSDEEEKEAALAFSKLDLRALELGDRELVKRLFQLLARFWMEGDPRYLEEAEELVEEVGSSSS
B22: il10ra_site1_normal_mot_HHH_b1_02062_000000185_0001_1_20_H_._HHH_b1_05438_0001_0000100002_0000001_0_af2pred_0001 (protein)
chain: SSSSTEESEEIYRLSREAAELYREGNPEEARKLLEEAEEIAEEAGNLNLLAVIEYLLEIINSSSS
B23: il10ra_site1_sap_14_mot_HHH_b1_00952_af2_000000199_0001_44_57_H_._cd66f5cefdcef76786f86471523878d9_0001_0001_0000400011_0000001_0_0001 (protein)
chain: SSSSDREEEESRELLEELEELLKEGDRERFIKLAQEIVRAAYEINDEELLRAVWELVHKFASSSS
B24: il10ra_site1_normal_mot_HHH_b2_02337_000000026_0001_38_52_H_._HHH_b1_04115_0001_0000100005_0000002_0 (protein)
chain: SSSSDREEEVERLIEEAERLLEEGNPEEASRVLQEAVRLAFESRDPELLRLIWELVQRIFNSSSS
B25: il10ra_site1_sap_29_mot_39a7b8d0c4c3fc04bafbda6ce6101d3a_0001_1_af2_000000014_0001_34_48_H_._HHH_b1_06982_af2_0001_0000200007_0000001_0_0001 (protein)
chain: SSSSSSESAEKSVRHFLRAAQHIDDEEYRRLTLWFAEADARAINDPELEELVREILEELLSSSSS
B26: il10ra_site1_normal_mot_22aa8d8ad8dce7f663ea8fa348a52261_0001_000000025_0001_37_51_H_._d0e8961964c3861271c3cee42b2d364a_0001_1_0001_0000300017_0000001_0 (protein)
chain: DEEKEELLIELIAEALGVPPELVEEAIKQLEKQNGDPREALRAIAAAARASAPPELRKQLEEALK
B27: il10ra_site1_normal_mot_HHH_b1_05326_000000242_0001_1_20_H_._HHH_b1_05676_af2_0001_0000200015_0000001_0 (protein)
chain: SSSSDEKQKVLELLREAFRLALRGDDERARELLEEAEKLAEELGDERLRQMIEALLQSLNSSSSS
B28: il10ra_site1_normal_mot_HHH_b2_00984_000000042_0001_1_20_H_._HHH_b2_06427_0001_0000100001_0000002_0 (protein)
chain: SSSSSSDVEEEVEELLEEAKQIDDWRRLSRLLLEATQLAIRANDPELLQEVWRVIKELSSSSSSS
B29: il10ra_site1_sap_21_mot_HHH_b1_08133_000000195_0001_1_19_H_._HHH_b2_02138_0001_0000100003_0000001_0_0001 (protein)
chain: SSSSSSDAVREAQELLREAAQIEDEEERREIVEEALELAEKAGNKILELSIRYLLEKLSSSSSSS
B30: il10ra_site1_normal_mot_HHH_b2_00984_000000042_0001_1_20_H_._HHH_b2_06737_0001_0000100013_0000001_0 (protein)
chain: SSSSSEDEERVEELLEEAKEIEDEREANEVLTEALQLAIQSNDPELLQEVWRVIKELAKRSSSSS
B31: il10ra_site1_sap_19_mot_HHH_b2_08050_000000089_0001_21_37_H_._HHH_b1_02869_0001_0000200020_0000003_0_0001 (protein)
chain: SSSSSTQEVYELLEELVKLIHNNDQEEAERLIEEIERLIEELNNPNMRMILEFLERALKRSSSSS
B32: il10ra_site1_sap_18_mot_HHH_b2_07569_000000265_0001_38_56_H_._HHH_b1_02823_0001_0000100002_0000002_0_0001_af2pred_dldesign_0_af2pred (protein)
chain: SSSSSPETVEIYRLIKEAAELLEKGDYEKVRELLEEAEKLAKKAKDELALAAIAALRRRLGSSSS
B33: il10ra_site1_normal_mot_HHH_b2_05984_000000040_0001_38_52_H_._HHH_b1_06146_0001_0000100001_0000002_0 (protein)
chain: SSSSSSDVKERVEELEEEIEKSDDPQERRELLEEVVELALKYQDLEAAEIATHLVRRLSSSSSSS
B34: il10ra_site1_normal_mot_HHH_b2_08144_af2_000000046_0001_38_52_H_._HHH_b1_03926_af2_0001_0000200013_0000001_1_af2pred_dldesign_0_af2pred (protein)
chain: SSSSSKTEEIIRLLTEGLELYAEGKPEEAKKLLEKALKLAEEINDPILADTARYALSQVESSSSS
B35: il10ra_site1_sap_24_mot_HHH_b1_06912_af2_000000235_0001_1_15_H_._HHH_b1_00741_0001_0000200006_0000001_0_0001 (protein)
chain: SSSSDEVEERVEELLERAQKIEDPDERYRLLEEAIKLAIENRDEEAEKLVHEVLRELMHKSSSSS
B36: il10ra_site1_sap_20_mot_HHH_b1_02665_000000293_0001_1_18_H_._HHH_b1_08612_0001_0000300026_0000001_0_0001 (protein)
chain: SSSSSDAAHEIYRLLKEAAELAANGNPEEAEKVLEEARELAEEANNRVLAVVVEFLLRRLSSSSS
B37: il10ra_site1_sap_18_mot_HHH_b2_00479_000000091_0001_1_12_H_._HHH_b2_07514_0001_0000100013_0000001_0_0001 (protein)
chain: DKLTEAAARLLRRLRDPELLRKVDRITIALYEGEIPPEEVIELLKEVAEELGDPEVERLIEELKR

These binders were tested against il10ra, Q13651 (assay: yeast display titration).

Apparent Kd, inactive:
B1 no binding seen
B2 no binding seen
B3 no binding seen
B4 no binding seen
B5 no binding seen
B6 no binding seen
B7 no binding seen
B8 no binding seen
B9 no binding seen
B10 no binding seen
B11 no binding seen
B12 no binding seen
B13 no binding seen
B14 no binding seen
B15 no binding seen
B16 no binding seen
B17 no binding seen
B18 no binding seen
B19 no binding seen
B20 no binding seen
B21 no binding seen
B22 no binding seen
B23 no binding seen
B24 no binding seen
B25 no binding seen
B26 no binding seen
B27 no binding seen
B28 no binding seen
B29 no binding seen
B30 no binding seen
B31 no binding seen
B32 no binding seen
B33 no binding seen
B34 no binding seen
B35 no binding seen
B36 no binding seen
B37 no binding seen

As a short view, some entries already given:
Apparent Kd, inactive:
B6 no binding seen
B7 no binding seen
B8 no binding seen
B9 no binding seen
B10 no binding seen
B11 no binding seen
B12 no binding seen

Reference: paper PMC10163288
